Here are results for three compounds from patent publication US20260209214A1, “LSD1 MODULATORS” (RECURSION PHARMACEUTICALS, INC., priority 2022, published 2026).

The structures given here were assigned with low confidence; some may be wrong.

The target in the test is Recombinant human LSD1 (Homo sapiens, UniProt O60341). In words: LSD1 inhibition assay (HTRF LSD1 Histone H3K4 mono-demethylation assay, me1->me0). It counts as biochemical. The note with it: read-out: LSD1 inhibition IC50 (nM range), 20 nM recombinant human LSD1, 95 nM H3K4(me1) biotinylated peptide, 15 min preincubation, 60 min at 25° C. How it is done: LSD1 biochemical activity was measured using the HTRF® LSD1 Histone H3K4 mono-demethylation assay (me1->me0). Briefly, the enzymatic buffer was prepared by addition of 50 mM Tris-HCl (Sigma cat #T2663-IL), 50 mM NaCl (ThermoFisher cat #AM9759) and 0.01% Tween 20 (ThermoFisher cat #J20605.AP) in distilled water (final pH 8.5). This buffer was supplemented with 10 μM FAD (Fisher Scientific cat #11411838) and 1 mM DTT (Sigma cat #D0632). For the assay, H3K4(me1) biotinylated peptide substrate (Anaspec, cat #64355) was added to provide a final assay concentration of 95 nM. The streptavidin-XL665 (Cisbio cat #610SAXLA) and H3K4 me0-Eu(K) antibody-cryptate (Cisbio, cat #61 KAOKAD) detection reagents were mixed according to the manufacturer's instructions. Test compounds were diluted in DMSO in a series of 10 semi-log step doses; 10 nL of each compound dose were dispensed in 384 well plates. Recombinant human LSD1 was diluted into enzymatic buffer to provide a final assay concentration of 20 nM and added to the tested compounds for 15 minutes. The reaction was started by addition of the substrate and incubated at 25° C. for 60 minutes. The detection reagents were added, and the plate was incubated in the dark for 90 minutes. Fluorescence was measured on an Envision 2103 plate reader with optical setup for […] in the HTRF mode. The ratio of acceptor and donor emission signals was calculated for each well. Percent inhibition values were calculated from the HTRF ratios at different doses and fitted to a 4-parameter logistic curve to determine IC50 values. […]
Background: Time-resolved FRET reads energy transfer from a long-lived donor to a nearby acceptor.
Take `Cn1cc2cc(-c3ccc(CN4[C@@H]5CC[C@H]4[C@@H](N)C5)cc3-c3ccc(C#N)c(F)c3)ccc2n1`: the IC50 was in the range of 10 to 25 nM.

On to `N#Cc1ccc(-c2cccc(CN3CCC4(CCN4)C3)c2Cl)cc1F` (stereo not drawn), for which the IC50 was in the range of 100 to 1000 nM.

As to `N#Cc1ccc(-c2cccc(CC3CNCCO3)c2C2CCCC2)cc1` (stereo not drawn), the IC50 lay within 100 to 1000 nM.

A word on the IC50: it is the concentration at which inhibition is half-maximal.
